This is an account of results in PubChem BioAssay AID1487 (National Center for Advancing Translational Sciences (NCATS), 2009).

SMILES strings stand for the structures. Where “and” joins values, the source holds several entries; their conditions need not be identical. Identical values can stand only once. The list shows a part of the results. These are further read-outs of the screen, such as a control signal, another cell line or another target. No call is given for them. Compounds called inactive in the main read-out are mostly missing here. Words in brackets tell the shape of the fitted curve; partial curves, single points and poor fits give uncertain potencies.

The nature of the test: qHTS Assay for Modulators of Lamin A Splicing. The conditions noted are these: HeLa LMNA splicing GFP/RFP minigene ratio, 48 h. Summed up:
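S3 HeLa cells stably expressing lamin A-EGFP splicing minigene plus DsRed2, 600 cells/well, 48 h compound exposure at 37C. Laser-scanning cytometry; analysed as GFP (500-530 nm)/RFP (575-640 nm) total intensity ratio; 0.5% DMSO vehicle.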
On the technique in general: In qHTS, concentration-response curves come from the screen itself.

[1] abbreviates: measured here: RFP viability control channel.
The mark [2] stands for this setting: measured here: GFP splicing reporter channel.

Turning to `CCOC(=O)Cc1ccc(NS(=O)(=O)c2ccc(SC)cc2)cc1`, under setting [1], the AC50 (usually the concentration giving half of the maximal activity seen) was 28.2 µM [rising, single point]. As for `Cc1ccc(NC(=S)NC(NC(=O)Cc2cccc3ccccc23)C(Cl)(Cl)Cl)cc1` (stereo not given), the AC50 under setting [2] is 35.5 µM [falling, single point] and the AC50 under setting [1] is 14.1 µM [falling, partial curve]. With `CCn1c(-c2nn(C)cc2Cl)n[nH]c1=S`, the AC50 under setting [1] is 1.78 µM [falling, full curve]. On to `C1CCN2C[C@@H]3C[C@@H](CN4CCCC[C@H]34)[C@H]2C1`, for which the half-maximal activity concentration (AC50) reads like this: under setting [2], 5.62 µM [falling, partial curve]; under setting [1], 0.316 µM [falling, single point].

As to `CC(c1cccs1)N(Cc1ccco1)C(=O)Nc1ccc(Cl)c(Cl)c1` (stereo not given), the AC50 by setting is: under setting [2], 35.5 µM [rising, single point]; under setting [1], 31.6 µM [rising, single point]. `Cc1onc(-c2c(Cl)cccc2Cl)c1C(=O)c1c[nH]c(C(=O)NCC2CCCO2)c1` (stereo not given): the AC50 is 35.5 µM [falling, single point] under setting [2] and 35.5 µM [falling, single point] under setting [1]. On to `CCCOC(=O)c1ccc(Cl)c(NC(=O)c2cccnc2)c1`, for which the AC50 is, setting by setting: under setting [2], 1.12 µM [falling, full curve, poor fit]; under setting [1], 2 µM [falling, full curve, poor fit]. Consider `Cc1ccc(C)c(S(=O)(=O)NCc2ccc(C(=O)N3CCC(Cc4ccccc4)CC3)cc2)c1`, for which the AC50 was 11.2 µM [falling, single point] under setting [2] and 10 µM [falling, partial curve] under setting [1].

Take `O=C(NCCCN1CCN(c2ccc(F)cc2)CC1)Nc1ccc([N+](=O)[O-])cc1`: the AC50 reads like this: under setting [2], 0.316 µM [falling, full curve]; under setting [1], 0.398 µM [falling, full curve, poor fit]. Turning to `COC(=O)c1c(NS(=O)(=O)c2ccc(C)cc2)sc2c1CCC(C)C2` (stereo not given), the AC50 under setting [1] was 35.5 µM [rising, single point]. The same measure, in the same setting: the value for `Cc1cc(OCC(=O)NC2CCN(C)CC2)ccc1[N+](=O)[O-]` was 4.47 µM [falling, partial curve]. Still for that read-out and setting: the value for `CC1=C(c2ccc(C)cc2)S(=O)(=O)N(Cc2ccc(C(=O)Nc3ccc(F)cc3C)cc2)C1=O` was 1.41 µM [rising, full curve, poor fit]; that for `Cc1ccc(C)c(NC(=O)c2cnn3ccccc23)c1` was 12.6 µM [rising, partial curve].

Regarding `O=C(c1ccc2c(Cl)c3c(nc2c1)CCCC3)N1CCN(c2ccc(F)cc2)CC1`, the AC50 under setting [2] is 12.6 µM [rising, single point] and the AC50 under setting [1] was 22.4 µM [rising, partial curve]. Take `Cn1c(=O)n(C/C=C/c2ccccc2)c(=O)c2c1nc1n2CCCN1c1ccc(F)cc1`: the AC50 runs as follows: under setting [2], 22.4 µM [rising, single point]; under setting [1], 15.8 µM [rising, partial curve]. As for `C=CCNC(=O)COC(=O)c1ccccc1C(=O)N(C)C1CCCCC1`, the AC50 is 0.0316 µM [falling, full curve, poor fit] under setting [2] and 0.0316 µM [falling, full curve, poor fit] under setting [1]. As to `CCOC(=O)N1CCN(C(=O)c2ccc(Cl)c(S(=O)(=O)Nc3ccccc3)c2)CC1`, the AC50 under setting [1] is 8.91 µM [rising, partial curve, poor fit]. The same measure, in the same setting: in the case of `COc1ccc(NC(=O)CCC(=O)c2cccs2)cc1S(=O)(=O)Nc1ccc(Cl)cc1` it was 35.5 µM [rising, single point]. Take `CCOc1ccc(NC(=O)Cn2ccn(-c3ccc(F)c(F)c3)c(=O)c2=O)cc1`: under setting [2], the AC50 was 0.1 µM [rising, full curve]. Consider `C#CCn1c(S(=O)(=O)Cc2ccc(F)cc2)nc(-c2ccccc2)c1-c1ccccc1`, for which, under setting [1], the half-maximal activity concentration (AC50) was 4.47 µM [rising, full curve].

On to `O=C(CN1CCN(Cc2ccccc2)CC1)N/N=C/c1c[nH]c2ccccc12`, for which, under setting [1], the AC50 is 35.5 µM [rising, single point]. Turning to `Cc1nn(-c2ccccc2)c2[nH]c(=O)c(CNCc3ccc4c(c3)OCO4)cc12`, the AC50 under setting [1] is 7.08 µM [rising, partial curve]. With `CCOCCSc1c(C)cnc2c1c(=O)n(C)c(=O)n2C`, the concentration at half-maximal activity (AC50) under setting [1] was 0.0708 µM [rising, full curve, poor fit]. Turning to `Cc1oc(-c2cc(F)ccc2F)nc1CN1CCN(c2ncnc3ccccc23)CC1`, the AC50 under setting [2] is 1.78 µM [rising, partial curve] and the AC50 under setting [1] is 1.41 µM [rising, partial curve]. Take `CC(=O)N1c2ccc(S(=O)(=O)N3CCCCCC3)cc2CC1C(=O)NCc1ccc(Cl)cc1` (stereo not given): the AC50 was 35.5 µM [falling, single point] under setting [2] and 10 µM [falling, partial curve] under setting [1].

On to `C/C(=N\N=C(N)N)c1ccc(Cl)cc1`, for which the AC50 reads like this: under setting [2], 4.47 µM [rising, partial curve, poor fit]; under setting [1], 10 µM [rising, partial curve, poor fit]. Consider `CC(=O)Nc1sc2c(c1C(c1ccc(Cl)cc1)N1CCOCC1)CCCC2` (stereo not given), for which the AC50 under setting [2] was 25.1 µM [falling, single point]. In the case of `CSC1=C(C#N)C(c2ccc(Cl)cc2)C2=C(CC(C)(C)CC2=O)N1` (stereo not given), the AC50 reads like this: under setting [2], 5.62 µM [rising, single point]; under setting [1], 2.82 µM [rising, partial curve].

Consider `Cc1ccc2cc(CN(Cc3ccco3)C(=O)NC3CCCCC3)c(=O)[nH]c2c1C`, for which the AC50 under setting [1] was 35.5 µM [rising, single point]. Regarding `COc1ccc(-c2cc(C(=O)NCc3ccc(F)cc3)c3c(-c4ccc(F)cc4)[nH]nc3n2)cc1OC`, the half-maximal activity concentration (AC50) reads like this: under setting [2], 12.6 µM [falling, partial curve]; under setting [1], 17.8 µM [falling, partial curve, poor fit]. As for `COc1ccccc1C1CC(c2ccc(Br)cc2)=NN1C(=O)c1cccnc1` (stereo not given), the AC50 under setting [1] is 0.282 µM [rising, full curve, poor fit].

Regarding `CNC1(C)C2CCC(C2)C1(C)C` (stereo not given), the AC50 by setting is: under setting [2], 5.62 µM [rising, single point] and 2.51 µM [rising, single point]; under setting [1], 0.00501 µM [falling, full curve, poor fit]. As for `CCOC(=O)c1[nH]c(C)c(CCC(=O)NCc2ccccc2Cl)c1C`, the AC50 is 0.501 µM [rising, single point] under setting [2] and 17.8 µM [rising, partial curve] under setting [1].
